Experimental data: PubChem BioAssay AID1259405 (NCATS, 2018)
Here is an unselected part of about 50,000 reagents tested. In the full data, about 4,000 (8%) got an active call. 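Mouse siRNA library applied to hamster cells; one well for each siRNA.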 The numbers tell different reagents against one gene apart.

- Assay: 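Mouse-designed siRNAs used to find CHO productivity engineering targets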 (primary screen)
- Cells: Chinese hamster CHO-K1 ovary cells with stable secreted eGFP expression
- Reagent: single siRNA against mouse genes, 0.8 pmol siRNA per well (2 µl of 400 nM stock)
- Time to read-out: 3 days
- Read-out: 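Per-well intracellular GFP measured by laser scanning cytometry, plus viability from ATP luminescence, each relative to plate median of non-targeting control wells, in %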
- Scale: GFP, % of control: higher = more GFP per well, higher productivity; viability (ATP), % of control: higher = more viable cells (more ATP)
- Rule for the call: 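Called active when intracellular GFP, relative to negative control, is at or above 120%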

Spcs1 (signal peptidase complex subunit 1 homolog (S. cerevisiae)) #1 scored GFP, % of control 84; viability (ATP), % of control 87.4; inactive.
Spcs1 (signal peptidase complex subunit 1 homolog (S. cerevisiae)) #2 showed GFP, % of control 67; viability (ATP), % of control 73.6; inactive.
Against Spcs1 (signal peptidase complex subunit 1 homolog (S. cerevisiae)) #3, the entry reads GFP, % of control 83.6; viability (ATP), % of control 86.4; inactive.
After knock-down of Vmn1r213 (vomeronasal 1 receptor 213) #1, the screen gave GFP, % of control 68.8; viability (ATP), % of control 67.5; inactive.
Against Vmn1r213 (vomeronasal 1 receptor 213) #2, the values are GFP, % of control 83; viability (ATP), % of control 101; inactive.
Vmn1r213 (vomeronasal 1 receptor 213) #3 scored GFP, % of control 42.3; viability (ATP), % of control 46.4; inactive.
Depletion of Akr1a1 (aldo-keto reductase family 1, member A1) #1 came out at: GFP, % of control 52.9; viability (ATP), % of control 59.2; inactive.
Akr1a1 (aldo-keto reductase family 1, member A1) #2 gave GFP, % of control 60.2; viability (ATP), % of control 59.1; inactive.
After knock-down of Akr1a1 (aldo-keto reductase family 1, member A1) #3 the results were GFP, % of control 81.1; viability (ATP), % of control 85; inactive.
Cyb561 (cytochrome b-561) #1 gave GFP, % of control 10.5; viability (ATP), % of control 8.23; inactive.
After knock-down of Cyb561 (cytochrome b-561) #2, the record shows GFP, % of control 63.5; viability (ATP), % of control 54.9; inactive.
Cyb561 (cytochrome b-561) #3 scored GFP, % of control 77.4; viability (ATP), % of control 64.1; inactive.
Knock-down of Defb28 (defensin beta 28) #1 resulted in: GFP, % of control 41.3; viability (ATP), % of control 63.4; inactive.
With knock-down of Defb28 (defensin beta 28) #2, the record shows GFP, % of control 89; viability (ATP), % of control 65.9; inactive.
Against Defb28 (defensin beta 28) #3, the values are GFP, % of control 68.2; viability (ATP), % of control 55.4; inactive.
Silencing of Cyp4a12a (cytochrome P450, family 4, subfamily a, polypeptide 12a) #1 came out at: GFP, % of control 55.7; viability (ATP), % of control 60.4; inactive.
Cyp4a12a (cytochrome P450, family 4, subfamily a, polypeptide 12a) #2 scored GFP, % of control 65.3; viability (ATP), % of control 70; inactive.
For Cyp4a12a (cytochrome P450, family 4, subfamily a, polypeptide 12a) #3, the entry reads GFP, % of control 76.1; viability (ATP), % of control 73.3; inactive.

Look-ups from above.
Under “viability (ATP), % of control”, Cyp4a12a (cytochrome P450, family 4, subfamily a, polypeptide 12a) #1 has 60.4
For “GFP, % of control”, Cyp4a12a (cytochrome P450, family 4, subfamily a, polypeptide 12a) #3 has 76.1

The list goes on:
Against Pgrmc1 (progesterone receptor membrane component 1) #1, the values are GFP, % of control 117; viability (ATP), % of control 123; inactive.
Depletion of Pgrmc1 (progesterone receptor membrane component 1) #2 came out at: GFP, % of control 87.4; viability (ATP), % of control 65.6; inactive.
Pgrmc1 (progesterone receptor membrane component 1) #3 showed GFP, % of control 67.6; viability (ATP), % of control 82.3; inactive.
Knock-down of Sec24b (SEC24 homolog B, COPII coat complex component) #1 gave: GFP, % of control 59.9; viability (ATP), % of control 69.2; inactive.
Against Sec24b (SEC24 homolog B, COPII coat complex component) #2, the entry reads GFP, % of control 61.2; viability (ATP), % of control 59.1; inactive.
After knock-down of Cyfip1 (cytoplasmic FMR1 interacting protein 1) #1, the screen gave GFP, % of control 41.9; viability (ATP), % of control 68.1; inactive.
Silencing of Cyfip1 (cytoplasmic FMR1 interacting protein 1) #2 came out at: GFP, % of control 90.6; viability (ATP), % of control 99.5; inactive.
Depletion of Cyfip1 (cytoplasmic FMR1 interacting protein 1) #3 gave: GFP, % of control 47.6; viability (ATP), % of control 40.8; inactive.
After knock-down of Depdc5 (DEP domain containing 5) #1, the screen gave GFP, % of control 73.9; viability (ATP), % of control 90.6; inactive.
After knock-down of Depdc5 (DEP domain containing 5) #2 the results were GFP, % of control 61.7; viability (ATP), % of control 46.4; inactive.
Depletion of Depdc5 (DEP domain containing 5) #3 came out at: GFP, % of control 45; viability (ATP), % of control 80.1; inactive.
With knock-down of Or8g2 (olfactory receptor family 8 subfamily G member 2) #1, the record shows GFP, % of control 103; viability (ATP), % of control 63.6; inactive.
Depletion of Or8g2 (olfactory receptor family 8 subfamily G member 2) #2 came out at: GFP, % of control 69.6; viability (ATP), % of control 47.5; inactive.
Or8g2 (olfactory receptor family 8 subfamily G member 2) #3 showed GFP, % of control 55; viability (ATP), % of control 63.9; inactive.
For Nyap2 #1 the deposit lists GFP, % of control 63.4; viability (ATP), % of control 38.4; inactive.
For Nyap2 #2, the entry reads GFP, % of control 51.3; viability (ATP), % of control 74; inactive.
Against Nyap2 #3, the values are GFP, % of control 57.3; viability (ATP), % of control 73.2; inactive.
Depletion of Cr2 (complement receptor 2) #1 came out at: GFP, % of control 38.4; viability (ATP), % of control 55.8; inactive.
Knock-down of Cr2 (complement receptor 2) #2 resulted in: GFP, % of control 126; viability (ATP), % of control 71; active.
After knock-down of Cr2 (complement receptor 2) #3, the screen gave GFP, % of control 38.9; viability (ATP), % of control 50.7; inactive.
Against Errfi1 (ERBB receptor feedback inhibitor 1) #1, the entry reads GFP, % of control 126; viability (ATP), % of control 90.1; active.
Against Errfi1 (ERBB receptor feedback inhibitor 1) #2 the deposit lists GFP, % of control 138; viability (ATP), % of control 94.3; active.
Against Errfi1 (ERBB receptor feedback inhibitor 1) #3, the values are GFP, % of control 80.7; viability (ATP), % of control 72.7; inactive.
